Source: PubChem BioAssay AID624297 (National Center for Advancing Translational Sciences (NCATS), 2012)
Hit rate of the full screen: of about 340,000 compounds, about 6,200 (1.8%) were called active. The inconclusive results got no clear call from the source; some entries with a clear call stand among them for comparison. Calls come from the whole dose curve; as a rule, active = well fitted activation curve with a large enough effect; inconclusive = small, poorly fitted or top-dose-only effect; inactive = no such curve, though single readings can be large or run the other way. Potencies beside an inconclusive call are fits to weak or partial responses and may not hold up.
Potency is the fitted concentration of half-maximal effect.

Assay: A quantitative high throughput screen for small molecules that induce DNA re-replication in SW480 colon adenocarcinoma cells. For re-replication activation: % of control where 0% means no effect. Note: nearly all actives have a fitted effect of over 55% in size.
Conditions: Hoechst DNA content imaging, 48 h; re-replication activation: at 46.1 µM (top of the series)
Procedure, shortened: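 Compounds, transferred as 23 nL by pin tool, were incubated with cells for 48 hr; DNA content per nucleus was then quantified by Hoechst staining and fluorescence plate imaging.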
With `COc1ccc(-c2nn(-c3ccccc3)cc2CNC[C@H]2O[C@@H](n3cnc(C(N)=O)n3)[C@H](O)[C@@H]2O)cc1` the Potency was inconclusive: 0.103 µM [activator, full curve, poor fit]. In the case of `COC(=O)c1c(NC(=O)C2CCCCC2)sc2c1CC(C)(C)NC2(C)C`, the Potency is reported as inconclusive: 29.1 µM [activator, single point]. In the case of `CN(C)S(=O)(=O)c1ccc(C(=O)Oc2cc(=O)[nH]c3ccccc23)cc1`, the “re-replication activation” value is reported as inactive: 4.21%. For `Cc1cc(OCC(=O)C(C)(C)C)c2c(-c3ccccc3)cc(=O)oc2c1`, the “re-replication activation” value was inactive: -8.15%. In the case of `O=C(NCC1CCCO1)c1ccccc1NS(=O)(=O)c1cccs1` (configuration not stated), the Potency is reported as inconclusive: 29.1 µM [activator, single point]. In the case of `Cc1[nH]n(C)c(=O)c1C(=O)c1c(-c2c(Cl)cccc2Cl)noc1C`, the Potency is reported as inconclusive: 9.2 µM [activator, single point]. For `NC(=O)CSc1nnc(-c2cc3ccccc3o2)n1Cc1ccccc1`, the “re-replication activation” value was inactive: -0.39%. With `Cc1sc(NC(=O)/C=C/C(=O)O)c(C(N)=O)c1-c1ccc(C(C)(C)C)cc1` the Potency was inconclusive: 16.4 µM [activator, single point]. In the case of `NC(=S)N/N=C/c1ccc(-n2nncc2-c2ccc(Cl)cc2)cc1`, the Potency is reported as inconclusive: 29.1 µM [activator, single point]. For `O=C(O)c1ccc(N/N=C/c2cc3ccccc3nc2Cl)cc1`, the Potency was inconclusive: 9.2 µM [activator, single point]. For `Cc1ccc(-c2ccc(/C=C(\C#N)C(N)=S)o2)c([N+](=O)[O-])c1`, the Potency was inconclusive: 29.1 µM [activator, single point]. With `CCOCCCNC(=S)NNC(=O)CCn1nc(C)c(Br)c1C` the Potency was inconclusive: 25.9 µM [activator, single point]. With `O=C(O)/C=C\C(=O)Nc1ccccc1C(=O)N1CCN(c2ccc(Cl)cc2)CC1` the “re-replication activation” value was inactive: -6.72%. In the case of `CCCC(=O)NC(=S)Nc1cccc(Cl)c1N1CCCC1`, the Potency is reported as inconclusive: 23.1 µM [activator, single point]. In the case of `COc1ccc(NC(=O)Nc2ccc3c(c2)C(=O)N([C@@H](C)CO)C[C@@H](C)[C@@H](CN(C)S(=O)(=O)c2cccs2)O3)cc1`, the Potency is reported as inconclusive: 0.82 µM [activator, full curve]. For `O=C(c1ccc(-c2ccccc2)cc1)N1CCN(c2ccccc2)CC1`, the Potency was inconclusive: 9.2 µM [activator, partial curve, poor fit]. With `O=C(CC1S/C(=N/N=C/c2cccs2)NC1=O)Nc1ccccc1F` (configuration not stated) the Potency was inconclusive: 0.291 µM [activator, partial curve, poor fit].
